The target of this experiment is hADAM-10 (UniProt O14672). Description: ADAM-10 enzyme assay: cleavage of fluorogenic 10-residue peptide (DABCYL/EDANS). The following applies: read-out: ADAM-10 IC50, Table 4, in vitro. How it is done:
mADAM-10 or hADAM-10 activity was measured as the ability to cleave a 10-residue peptide (DABCYL-Leu-Leu-Ala-Gln-Lys-*-Leu-Arg-Ser-Ser-Arg-EDANS). […] Enzyme was diluted to a final active concentration of 5 nM in Buffer A (50 mM HEPES 8.0, 100 mM NaCl, 1 mM CaCl2 and 0.01% NP-40). Serial dilutions for compounds were performed ranging from 100 uM to 0.5 nM using a Beckman Biomek 2000 in polypropylene plates (Greiner). 20 μl of enzyme solution was added to 10 μl of compound in buffer A, and allowed to incubate for 15 min in 384 well black, Greiner, microtiter plates (#781076). 20 μl of substrate (12.5 uM in Buffer A) was then added, resulting in final reaction conditions of 2 nM ADAM-10, 5 μM substrate, and compound concentrations ranging from 20 uM to 0.1 nM. The reaction was incubated for 2 hr at RT, and fluorescence was measured at Ex355, Em460 on a Wallac Victor 2 fluorescence reader. For final analysis of potent inhibitors, a similar reaction was set up with a final active ADAM-10 concentration of 0.1 nM. This reaction was incubated for 16 hr at RT and fluorescence was read using identical conditions.
Inhibition is indicated as IC50 with the following key: A=IC50 less than 50 nM, B=IC50 greater than 50 nM, but less than 1000 nM, C=IC50 greater than […], but less than 20,000 nM, and D=IC50 greater than 20,000 nM.

Amino acid sequences for entries named in this document (tags omitted).
UniProt O14672, whole entry: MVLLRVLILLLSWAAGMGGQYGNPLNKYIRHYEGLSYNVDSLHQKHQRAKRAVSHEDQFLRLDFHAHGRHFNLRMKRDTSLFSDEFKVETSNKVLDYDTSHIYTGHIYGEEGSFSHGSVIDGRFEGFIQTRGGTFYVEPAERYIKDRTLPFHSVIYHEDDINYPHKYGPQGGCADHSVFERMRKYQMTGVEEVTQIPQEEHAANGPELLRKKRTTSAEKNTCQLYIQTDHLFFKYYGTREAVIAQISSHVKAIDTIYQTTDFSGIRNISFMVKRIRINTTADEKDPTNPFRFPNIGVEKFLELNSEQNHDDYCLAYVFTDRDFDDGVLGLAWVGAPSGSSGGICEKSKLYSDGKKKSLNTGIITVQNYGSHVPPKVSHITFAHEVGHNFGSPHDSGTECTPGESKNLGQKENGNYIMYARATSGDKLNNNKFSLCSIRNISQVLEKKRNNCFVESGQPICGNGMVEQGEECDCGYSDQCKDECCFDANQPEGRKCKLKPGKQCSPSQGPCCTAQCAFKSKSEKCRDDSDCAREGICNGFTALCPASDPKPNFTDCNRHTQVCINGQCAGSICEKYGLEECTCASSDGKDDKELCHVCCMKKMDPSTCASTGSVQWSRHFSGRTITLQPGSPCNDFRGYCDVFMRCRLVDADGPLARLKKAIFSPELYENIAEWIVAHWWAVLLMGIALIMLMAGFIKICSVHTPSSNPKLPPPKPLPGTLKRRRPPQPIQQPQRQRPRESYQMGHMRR

The results in this text go back to patent publication US7498358B2, “Human ADAM-10 inhibitors” (Exelixis, Inc., priority 2001, dated 2009).

Structures were worked out from names or drawings and are uncertain.

Broadly, the IC50 is the concentration needed to halve the response being measured.

Take `NC(=N[N+](=O)[O-])NCCCC(NS(=O)(=O)c1ccc(Oc2ccccc2)cc1)C(=O)NO` (stereo not shown): the IC50 was less than 0.05 µM.
